Experimental data published in PubChem BioAssay AID1671190 (National Center for Advancing Translational Sciences (NCATS), 2021).
Where “and” joins values, the source holds several entries; their conditions need not be identical. Identical values can stand only once. Among all 580,000 compounds or so, about 6,100 (1.1%) were called active. This list was built around the results that the source calls inconclusive (neither active nor inactive); the mix of calls is not that of the screen. The call rests on the fitted dose curve; in most records, active means well fitted inhibition curve with a large enough effect; inconclusive means small, poorly fitted or top-dose-only effect, or another doubt; inactive means no such curve, though single readings can be large or run the other way. Potencies of inconclusive entries are doubtful fits and often do not repeat.

The chains behind the UniProt entries cited, without tags or fusion partners. Where a name states a change or a piece, a line headed by the entry shows the natural chain unless it says otherwise.
UniProt P18054: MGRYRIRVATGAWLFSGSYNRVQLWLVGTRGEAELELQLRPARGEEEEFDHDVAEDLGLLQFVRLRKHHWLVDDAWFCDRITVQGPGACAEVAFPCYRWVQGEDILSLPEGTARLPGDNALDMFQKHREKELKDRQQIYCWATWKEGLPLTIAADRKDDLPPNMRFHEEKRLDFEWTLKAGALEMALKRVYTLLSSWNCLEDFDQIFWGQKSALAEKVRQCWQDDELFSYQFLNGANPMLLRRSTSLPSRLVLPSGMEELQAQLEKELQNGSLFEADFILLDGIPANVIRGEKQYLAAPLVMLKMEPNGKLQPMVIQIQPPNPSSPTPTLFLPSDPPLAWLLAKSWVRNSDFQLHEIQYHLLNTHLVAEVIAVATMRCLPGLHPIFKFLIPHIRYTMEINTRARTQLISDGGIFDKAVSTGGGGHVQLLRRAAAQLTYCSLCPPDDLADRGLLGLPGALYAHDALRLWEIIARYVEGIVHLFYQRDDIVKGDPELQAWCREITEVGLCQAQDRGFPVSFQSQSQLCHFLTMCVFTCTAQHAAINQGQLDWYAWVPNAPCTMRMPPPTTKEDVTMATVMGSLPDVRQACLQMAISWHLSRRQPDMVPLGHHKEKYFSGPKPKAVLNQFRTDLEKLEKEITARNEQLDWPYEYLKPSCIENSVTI

molecular target: Polyunsaturated fatty acid lipoxygenase ALOX12 (Homo sapiens) (UniProt P18054); test: Primary qHTS assay for inhibitors of human arachidonate 12S-lipoxygenase (ALOX12): Round 2; details: purified 12hLO, xylenol orange hydroperoxide absorbance; series mostly up to 108 µM
Procedure, shortened: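 Purified human 12hLO at 150 nM in 25 mM Hepes, 0.01% Triton X-100, pH 7.0, preincubated 15 min at room temperature with compound. Reaction started with 40 uM arachidonic acid, 30 min at room temperature. Hydroperoxide measured by Fe-xylenol orange, 573/405 nm absorbance ratio.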
Potency means the concentration at half of the fitted maximal effect.

For `CN(C(=O)c1ccc(NC(=O)Cc2ccc(NC(=O)C3CCCN(C(=O)CCc4ccccc4)C3)cc2)cc1)C1CCCC1` (stereo unspecified), which Potency is on record?
Its Potency is “inactive”.

Which Potency does the source give for `Cc1csc2c(N3CCN(C(=O)Nc4ccc(Cl)c(Cl)c4)CC3)ncnc12` here?
The Potency was inconclusive: 50.1 µM [inhibitor, partial curve, poor fit].

`Cc1ccc(NS(=O)(=O)c2c(F)cc(F)cc2Br)cc1C` was tested. Which Potency did it give?
Its Potency is “inactive”.

With `COc1ccc(C(=S)N2CCN(c3cccc(Cl)c3)CC2)c(OC)c1` as the compound, how does the Potency read?
The Potency was inconclusive: 12.6 µM [inhibitor, full curve].

`CC(C)NC(=O)N1CCC(c2nnc3n2CCNC3)CC1` was tested. Which Potency did it give?
Its Potency is inconclusive: 4.46 µM [inhibitor, single point].

With `O=S(=O)(Nc1nc2ccc(S(=O)(=O)N3CCCC3)cc2s1)c1ccc(F)cc1` as the compound, how does the Potency read?
The Potency was “inactive”.

With `CCC(C)c1ccccc1NC(=O)C(C)N(C)Cc1cccc(OC)c1` (stereo unspecified) as the compound, how does the Potency read?
The Potency was “inactive”.

For `COc1ccc(-n2nc(C(=O)NCC(=O)N3CCN(c4ccccn4)CC3)c3ccccc3c2=O)cc1`, which Potency is on record?
Its Potency is inconclusive: 79.4 µM [inhibitor, single point].

With `O=C(CN1CCN(Cc2ccc3c(c2)OCO3)CC1)c1c[nH]c2ccccc12` as the compound, how does the Potency read?
Its Potency is inconclusive: 10 µM [inhibitor, full curve, poor fit].

How did the Potency turn out when `Cc1cc(S(=O)(=O)Nc2ccccc2C(=O)O)ccc1Cl` was run?
The Potency was inconclusive: 12.6 µM [inhibitor, full curve, poor fit].

With `COc1ccc(OCC(=O)N/N=C/c2ccc(OC)c(OC)c2C(=O)O)cc1` as the compound, how does the Potency read?
Its Potency is “inactive”.

How did the Potency turn out when `CCN(CC)CCNC(=O)C(=O)Nc1cccc2[nH]ccc12` was run?
Its Potency is “inactive”.

Which Potency does the source give for `CCCCn1c(N)c(N(CCOC)C(=O)CN(C)S(=O)(=O)c2ccc(Cl)cc2)c(=O)[nH]c1=O` here?
Its Potency is inconclusive: 126 µM [inhibitor, partial curve, poor fit].

How did the Potency turn out when `O=C(c1cc(C2CC2)[nH]n1)N1C[C@@H](CO)[C@H](c2ccccn2)C1` was run?
Its Potency is inconclusive: 39.8 µM [inhibitor, single point].

`CCOc1ccc(-c2csc(/C(C#N)=C\c3ccc(O)c([N+](=O)[O-])c3)n2)cc1` was tested. Which Potency did it give?
The Potency was “inactive”.

How did the Potency turn out when `On1c(-c2ccccc2)nc2ccc(Cl)cc21` was run?
Its Potency is inconclusive: 56.2 µM [inhibitor, partial curve, poor fit].

With `CNC(=O)C(C)Sc1nc(-c2ccccc2)c(-c2ccccc2)o1` (stereo unspecified) as the compound, how does the Potency read?
The Potency was inconclusive: 100 µM [inhibitor, partial curve, poor fit].

Which Potency does the source give for `CC(C)Cn1c(CN(Cc2ccccc2)Cc2ccccc2)nc2c1c(=O)n(C)c(=O)n2C` here?
The Potency was inconclusive: 112 µM [inhibitor, single point].

With `CCCNC(=O)C1(C)CCN(Cc2ccc(OCc3ccccc3)cc2)C1` (stereo unspecified) as the compound, how does the Potency read?
Its Potency is inconclusive: 79.4 µM [inhibitor, partial curve, poor fit].

For `CCn1c2ccccc2c2cc(NC(=O)CNCc3ccccc3OC)ccc21`, which Potency is on record?
Its Potency is inconclusive: 44.7 µM [inhibitor, partial curve, poor fit].

For `C#CCOc1ccccc1CNC1CCN(Cc2ccccc2)CC1`, which Potency is on record?
The Potency was inconclusive: 0.355 µM [inhibitor, full curve, poor fit].

For `Cc1ccc(N2C(=O)C(CC(=O)Nc3ccccc3)N(CCC3=CCCCC3)C2=O)cc1` (stereo unspecified), which Potency is on record?
The Potency was inconclusive: 100 µM [inhibitor, partial curve, poor fit].

Which Potency does the source give for `CCC1(O)c2ccccc2-c2ncccc21` (stereo unspecified) here?
Its Potency is inconclusive: 0.0794 µM [inhibitor, full curve, poor fit].

With `Cc1ccc(NC(=S)NC2CCCC2)c(C)c1` as the compound, how does the Potency read?
The Potency was inconclusive: 44.7 µM [inhibitor, partial curve, poor fit].

`O=C1CCN(C(=O)[C@@H]2CCCN2Cc2cccc(F)c2)CCCCCCN1` was tested. Which Potency did it give?
The Potency was “inactive”.

With `CC(C)N=C(NC#N)SCc1ccccc1` as the compound, how does the Potency read?
Its Potency is inconclusive: 5.62 µM [inhibitor, full curve, poor fit].

With `CC(C)CNC(=O)CC(c1cccc(F)c1)c1cn(C)c2ccccc12` (stereo unspecified) as the compound, how does the Potency read?
The Potency was “inactive”.

For `FC(F)(F)c1ccccc1N/N=C/c1ccc(Br)cc1`, which Potency is on record?
Its Potency is inconclusive: 17.8 µM [inhibitor, partial curve, poor fit].

`O=C(C1=C(O)C(=O)N(Cc2ccccc2)C1c1ccncc1)c1ccco1` (stereo unspecified) was tested. Which Potency did it give?
The Potency was inconclusive: 5.62 µM [inhibitor, partial curve, poor fit].

With `COc1cccc(N2CCN(C(=O)CCCCCNc3nc(=S)[nH]c4ccccc34)CC2)c1` as the compound, how does the Potency read?
The Potency was “inactive”.

How did the Potency turn out when `Cc1cccc(CN2C[C@@H]3C(=O)N(CCN4CCc5ccccc5C4)C(=O)[C@@H]3C2)c1` was run?
The Potency was “inactive”.

For `CCCn1nc(C(=O)Nc2ccc(F)c(S(=O)(=O)N3CCOCC3)c2)c2ccccc2c1=O`, which Potency is on record?
Its Potency is inconclusive: 35.5 µM [inhibitor, partial curve, poor fit].

For `COC(=O)CN1C(=O)C(C)(C)c2cc(S(=O)(=O)Nc3ccc(C(C)C)cc3)ccc21`, which Potency is on record?
Its Potency is inconclusive: 44.7 µM [inhibitor, partial curve, poor fit].

Which Potency does the source give for `CC(C)C1Nc2ccc(S(N)(=O)=O)cc2C2C=CCC21` (stereo unspecified) here?
The Potency was inconclusive: 28.2 µM [inhibitor, partial curve, poor fit].

`CCn1c(NCCO)nc2c1c(=O)n(C)c(=O)n2C` was tested. Which Potency did it give?
The Potency was “inactive”.

With `CCN(CC)CCCN(C(C)=O)c1nc(-c2cc(OC)ccc2OC)cs1` as the compound, how does the Potency read?
Its Potency is inconclusive: 112 µM [inhibitor, single point].

With `CCc1ccc2oc(C(=O)N(Cc3ccc(Cl)cc3)C3CCS(=O)(=O)C3)cc(=O)c2c1` (stereo unspecified) as the compound, how does the Potency read?
Its Potency is “inactive”.

For `COc1ccc(CC(=O)Nc2nnc(C(C)(C)C)s2)cc1OC`, which Potency is on record?
Its Potency is “inactive”.

With `c1ccc2c3c([nH]c2c1)CCNC3` as the compound, how does the Potency read?
Its Potency is inconclusive: 70.8 µM [inhibitor, partial curve, poor fit].

How did the Potency turn out when `COC(=O)c1ccc(Cl)cc1NC(=O)N1CCC(CN2CCC(C)CC2)CC1` was run?
The Potency was “inactive”.

`CCC(c1nnc(SCC(=O)Nc2ccc(Cl)cc2C(F)(F)F)n1C1CCCCC1)N(C)C` (stereo unspecified) was tested. Which Potency did it give?
The Potency was inconclusive: 3.55 µM [inhibitor, full curve, poor fit].

For `NS(=O)(=O)c1ccc(NC2=CC(=O)C(=O)c3ccccc32)cc1`, which Potency is on record?
Its Potency is inconclusive: 44.7 µM [inhibitor, partial curve, poor fit].

`CCOc1ccc(NC(=S)NNC(=S)Nc2cccc(C(F)(F)F)c2)cc1` was tested. Which Potency did it give?
Its Potency is “inactive”.

`O=C(COc1ccc(Cl)cc1Cl)c1ccc[nH]1` was tested. Which Potency did it give?
The Potency was inconclusive: 79.4 µM [inhibitor, single point].

How did the Potency turn out when `CCCCN=C1NN=C(c2cc3ccccc3o2)CS1` was run?
Its Potency is inconclusive: 50.1 µM [inhibitor, partial curve, poor fit].

How did the Potency turn out when `O=Cc1cc(N=Nc2ccccc2Cl)ccc1O` was run?
The Potency was inconclusive: 56.2 µM [inhibitor, partial curve, poor fit].

Which Potency does the source give for `CCOC(=O)N1CCC(NCCNC(=O)c2cccc(F)c2)CC1` here?
Its Potency is inconclusive: 44.7 µM [inhibitor, partial curve, poor fit].

With `CC1(C(=O)NCc2ccc(C(F)(F)F)cc2)CCN1C1Cc2ccccc2C1` (stereo unspecified) as the compound, how does the Potency read?
The Potency was inconclusive: 35.5 µM [inhibitor, full curve, poor fit].

Which Potency does the source give for `COc1ccc(CCNc2cc(-c3ccccc3)nc3ncnn23)cc1` here?
The Potency was “inactive”.

With `O=C(NC1CCCC1)N1CCc2nnc(C3CC3)n2CC1` as the compound, how does the Potency read?
Its Potency is “inactive”.

How did the Potency turn out when `CCCCn1c(=O)[nH]c(=O)c2c1nc(CNc1ccc(C)c(F)c1)n2CCC(C)C` was run?
Its Potency is inconclusive: 2.82 µM [inhibitor, full curve, poor fit].

With `O=C(NC(=S)Nc1ccccc1Br)C1CCCCC1` as the compound, how does the Potency read?
The Potency was inconclusive: 17.8 µM [inhibitor, partial curve, poor fit].

How did the Potency turn out when `CC12CCC(/C(=C/NNc3ccc([N+](=O)[O-])cc3[N+](=O)[O-])C1=O)C2(C)C` (stereo unspecified) was run?
The Potency was inconclusive: 56.2 µM [inhibitor, partial curve, poor fit].

For `CC(=O)N1CCN(C(=O)CCCNC(=O)c2ccc(Cl)cc2)CC1`, which Potency is on record?
The Potency was “inactive”.

`CC(C)CCN1CCC(N2CCN(C(=O)CC3CCCCC3)CC2)C1=O` (stereo unspecified) was tested. Which Potency did it give?
The Potency was inconclusive: 20 µM [inhibitor, partial curve].

How did the Potency turn out when `Cc1cc(OC(C)C(=O)N2CCN(c3ccc(F)cc3)CC2)c2c(C)c(C)c(=O)oc2c1` (stereo unspecified) was run?
Its Potency is “inactive”.

With `CC(C)(C)c1cc[n+](-c2[nH]c(=O)sc2/C=N/NC(=O)c2ccccc2[O-])cc1` as the compound, how does the Potency read?
The Potency was “inactive”.

For `COc1ccccc1C(=O)Nc1ccc(C(=O)Nc2ccccc2C(=O)O)cc1`, which Potency is on record?
Its Potency is inconclusive: 0.316 µM [inhibitor, full curve, poor fit].

With `O=C(O)c1ccccc1Br` as the compound, how does the Potency read?
The Potency was inconclusive: 39.8 µM [inhibitor, partial curve, poor fit].

For `CN(Cc1ccccc1)C1=CC(=[N+]2CCCC2)CC(C)(C)C1`, which Potency is on record?
Its Potency is inconclusive: 50.1 µM [inhibitor, partial curve, poor fit].

For `Nc1[nH]c(C(=O)c2ccccc2)c(-c2ccccc2Br)c1C(=O)NCc1ccc(-c2ccccc2)cc1`, which Potency is on record?
The Potency was “inactive”.

For `O=C1Nc2ccccc2C(O)(C(=O)NC2CC2)N1c1ccc(Cl)c(Cl)c1` (stereo unspecified), which Potency is on record?
The Potency was inconclusive: 31.6 µM [inhibitor, single point].

Which Potency does the source give for `CCOC(=O)[C@H](CCc1ccccc1)N[C@@H](C)C(=O)N1Cc2ccccc2C[C@H]1C(=O)O` here?
Its Potency is “inactive and inconclusive: 22.4 µM [inhibitor, partial curve, poor fit]”.

Which Potency does the source give for `CCN(C(=O)COC(=O)CNC(=O)c1ccccc1C)C1=CCCCC1` here?
Its Potency is inconclusive: 28.2 µM [inhibitor, partial curve, poor fit].

`O=C(NNC(=S)Nc1ccc(Br)cc1)c1ccc(N2CCOCC2)c([N+](=O)[O-])c1` was tested. Which Potency did it give?
Its Potency is inconclusive: 56.2 µM [inhibitor, partial curve, poor fit].

How did the Potency turn out when `CC(=O)NC(CSC(CC(=O)c1ccco1)c1ccc(C)cc1)C(=O)O` (stereo unspecified) was run?
Its Potency is inconclusive: 20 µM [inhibitor, partial curve].
